Taken from: PubChem BioAssay AID1259308 (NCATS, 2017)

Assay: 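Candidate targets for better recombinant protein yield in mammalian cells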 (primary screen)
Cell system: human HEK293 embryonic kidney cells stably expressing firefly luciferase (HEK-CMV-Luc2-Hygro)
Knock-down reagent: single siRNA against human genes, 0.8 pmol siRNA per well
Time to read-out: 72 h
Measured: 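Reporter luminescence and viable-cell signal on separate replicate plates, given as percent of non-targeting control and median/MAD z-scores, plus per-cell luciferase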
Reading the numbers: total luciferase, z-score: higher = more reporter protein produced
Active means: 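Active when the median/MAD z-score for overall luciferase is greater than 3; a gene was taken forward for validation with new siRNAs if at least two of its three siRNAs passed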
Calls: active = raised luciferase; inactive = no rise
Shown is an unselected part of about 59,000 reagents. About 1,510 of them (2.6%) were called active. 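Calls use total luciferase alone and ignore viability, so some active siRNAs may act by altering cell number.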 Reagents against one gene are numbered here. Not all columns of the deposit are shown. No sequences are given here.

no.	target gene	reagent	total luciferase, z-score	activity call
1	LAMTOR1	1	-0.575	inactive
2	LAMTOR1	2	1.97	inactive
3	LAMTOR1	3	0.149	inactive
4	CNNM2	1	-0.803	inactive
5	CNNM2	2	0.262	inactive
6	CNNM2	3	-0.34	inactive
7	LIPA	1	0.646	inactive
8	LIPA	2	-0.388	inactive
9	LIPA	3	0.31	inactive
10	RBMX2	1	0.649	inactive
11	RBMX2	2	0.18	inactive
12	RBMX2	3	2.01	inactive
13	XRN1	1	2.16	inactive
14	XRN1	2	-0.756	inactive
15	XRN1	3	0.558	inactive
16	SFSWAP	1	0.679	inactive
17	SFSWAP	2	1.16	inactive
18	SFSWAP	3	-0.394	inactive
19	USP29	1	-0.39	inactive
20	USP29	2	-1.25	inactive
21	USP29	3	2.58	inactive
22	FGGY	1	0.514	inactive
23	FGGY	2	1.47	inactive
24	FGGY	3	-0.736	inactive
25	MMD	1	1.8	inactive
26	MMD	2	-0.806	inactive
27	MMD	3	-1.4	inactive
28	TMEM161BP1	1	0.38	inactive
29	TMEM161BP1	2	-0.545	inactive
30	TMEM161BP1	3	0.547	inactive
31	KLF3	1	-1.21	inactive
32	KLF3	2	-0.552	inactive
33	KLF3	3	-1.35	inactive
34	LINC00545	1	-1.47	inactive
35	LINC00545	2	-2.57	inactive
36	LINC00545	3	-0.531	inactive
37	WNT8B	1	-2.28	inactive
38	WNT8B	2	-0.00714	inactive
39	WNT8B	3	3.06	active
40	BMP3	1	0.276	inactive
41	BMP3	2	2.11	inactive
42	BMP3	3	-0.197	inactive
43	ZNF883	1	0.523	inactive
44	ZNF883	2	-1.36	inactive
45	ZNF883	3	1.22	inactive
46	ASH1L-AS1	1	0.461	inactive
47	ASH1L-AS1	2	-0.898	inactive
48	ASH1L-AS1	3	0.15	inactive
49	WNT7B	1	0.979	inactive
50	WNT7B	2	1.43	inactive
51	WNT7B	3	-0.176	inactive
52	SPIC	1	-0.377	inactive
53	SPIC	2	-0.408	inactive
54	SPIC	3	-0.118	inactive
55	KDR	1	1.58	inactive
56	KDR	2	0.363	inactive
57	KDR	3	-0.147	inactive
58	PLEC	1	-0.00621	inactive
59	PLEC	2	1.47	inactive
60	PLEC	3	-0.739	inactive
61	KAZN	1	-1.62	inactive
62	KAZN	2	2.23	inactive
63	KAZN	3	-1.85	inactive
64	KAZN	4	-0.785	inactive
65	KAZN	5	1.19	inactive
66	KAZN	6	-1.57	inactive
67	ZNF740	1	-0.0791	inactive
68	ZNF740	2	-0.437	inactive
69	ZNF740	3	2.27	inactive
70	MGAT4EP	1	-0.648	inactive
71	MGAT4EP	2	0.427	inactive
72	MGAT4EP	3	1.44	inactive
73	SEC61B	1	-0.0981	inactive
74	SEC61B	2	-0.776	inactive
75	SEC61B	3	-0.578	inactive

Quoted from the entries so far for reference:
no.	target gene	reagent	total luciferase, z-score	activity call
45	ZNF883	3	1.22	inactive
46	ASH1L-AS1	1	0.461	inactive
47	ASH1L-AS1	2	-0.898	inactive
48	ASH1L-AS1	3	0.15	inactive
49	WNT7B	1	0.979	inactive
50	WNT7B	2	1.43	inactive
51	WNT7B	3	-0.176	inactive
52	SPIC	1	-0.377	inactive
53	SPIC	2	-0.408	inactive
54	SPIC	3	-0.118	inactive
55	KDR	1	1.58	inactive
56	KDR	2	0.363	inactive
